Assay: Fog Test (VOC content, DIN 75201-B)
Settings: for VOCs content as weight loss of Test Specimen: 100° C. for 16 hours, same amount of tin (0.029 g); for VOC content: Fog Test, same amount of tin

Dimethyltin dineodecanoate
VOCs content as weight loss of Test Specimen: 37 ppm | VOC content: 37 ppm

Dimethyltin diricinoleate
VOCs content as weight loss of Test Specimen: 12 ppm | VOC content: 12 ppm

Stannous diricinoleate
VOCs content as weight loss of Test Specimen: 9 ppm | VOC content: 9 ppm

— patent US20260226222A1, “PROCESS FOR MANUFACTURING POLYURETHANE FOAM” (Galata Chemicals, LLC, priority 2023, published 2026)
